# Test results as given in paper PMC6737238.
# The exact form of at least one protein or probe is not confirmed. The comparison behind a weaker result is the experiment's own reference, which may not be listed here. Protein sequences can lack the tags named with them. For some of these results: At least one verdict rests on a figure or table, not on a statement of the authors.
# Columns and labels:
# [1] = biological target: T1, TkTrpY (TK1227 protein) (Thermococcus kodakarensis KOD1) (UniProt Q5JGI5); assay: EMSA; settings: EMSA: 0.4 nM biotinylated probe, 10 mM Tris-HCl pH 7.5, 1 mM DTT, 10 mM MgCl2, 400 mM KCl, 0.05% NP-40, 70C 10 min, 5% PAGE, 0.5x TBE, recombinant protein, residues 1-166, label: 5'-biotin on reverse primer, probe letters rebuilt from the primers and the genome
# T1 sequence (looked up): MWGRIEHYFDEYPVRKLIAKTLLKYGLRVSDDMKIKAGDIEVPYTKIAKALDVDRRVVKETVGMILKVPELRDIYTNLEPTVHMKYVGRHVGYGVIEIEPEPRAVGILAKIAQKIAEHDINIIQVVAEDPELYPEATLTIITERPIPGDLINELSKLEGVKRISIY
# [2] = biological target: T2, Tar (TK0271 protein) (Thermococcus kodakarensis KOD1) (UniProt Q5JFW7); assay: EMSA; settings: EMSA: 0.4 nM biotinylated probe, 10 mM Tris-HCl pH 7.5, 1 mM DTT, 10 mM MgCl2, 400 mM KCl, 0.05% NP-40, 70C 10 min, 5% PAGE, 0.5x TBE, recombinant protein
# T2 sequence (looked up, limits assumed): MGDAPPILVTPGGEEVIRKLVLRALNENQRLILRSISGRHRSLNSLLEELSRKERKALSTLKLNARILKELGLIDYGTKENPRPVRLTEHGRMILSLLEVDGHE
# [3] = dramatic decrease in affinity, label: 5'-biotin on strand 2 (primer S197, filled in)
sequence,measurement,setting,value
GACTTCGGCTTTCTGATGGTCGGAAGGGACGTGGAAAATGCGAACGAAGCGATAAAAATGTTTTTGGAGGAGGTTAAACGAGGGCCTTAACGCCCTCTCGGTCTTTTTAGCTACTCCCTTGGACACCTCAGCATGTCCAAAGCCTTATATCCCAACTCCCCCTTTTGACACCGGTGAGTTCAAATGGGTGATGGTTTTTGGATTAAGC (double strand) [trp promoter (TK0252)],binding result,"[1]; 10 mM Trp, binding not affected",binds more weakly
same,binding result,"[1]; no specific binding, faint band at 50 nM protein",binds more weakly
same,binding result,"[2]; 5 mM erythrose 4-phosphate, majority of complex dissociated, label: 5'-biotin on reverse primer, probe letters rebuilt from the primers and the genome",binds more weakly
same,binding result,"[2]; 10 mM erythrose 4-phosphate, 20 nM protein, label: 5'-biotin on reverse primer, probe letters rebuilt from the primers and the genome",binds more weakly
GGTCTTTTTAGCTACTCCCTCGTACCCCTCAGCAGGTACGAAGCCTTATATCCCAACTCCCC (double strand) [M1],binding result,[2]; [3],binds more weakly
GGTCTTTTTAGCTACTCCCTCTTCTCCCTCAGCAGAGAAGAAGCCTTATATCCCAACTCCCC (double strand) [M2],binding result,[2]; [3],binds more weakly
GGTCTTTTTAGCTACTCCCTTGGACACCTCAGCATGTCCAAAGCCTTATATCCCAACTCCCC (double strand) [sTK0252 (wild type)],binding result,"[2]; label: 5'-biotin on strand 2 (primer S197, filled in)",binds
